Reference: the supplement of paper PMC6411743
± gives the standard deviation of the averaged measurements. The list shows a part of the results, in another mix than the full data. Most entries show no effect beyond the scatter of the controls.

Protein sequences, listed by entry. Tags and fused reporters are not part of them. Lines headed by an entry give the natural chain unless they say otherwise; changes in a name come on top.
UniProt Q8TCE6, whole entry: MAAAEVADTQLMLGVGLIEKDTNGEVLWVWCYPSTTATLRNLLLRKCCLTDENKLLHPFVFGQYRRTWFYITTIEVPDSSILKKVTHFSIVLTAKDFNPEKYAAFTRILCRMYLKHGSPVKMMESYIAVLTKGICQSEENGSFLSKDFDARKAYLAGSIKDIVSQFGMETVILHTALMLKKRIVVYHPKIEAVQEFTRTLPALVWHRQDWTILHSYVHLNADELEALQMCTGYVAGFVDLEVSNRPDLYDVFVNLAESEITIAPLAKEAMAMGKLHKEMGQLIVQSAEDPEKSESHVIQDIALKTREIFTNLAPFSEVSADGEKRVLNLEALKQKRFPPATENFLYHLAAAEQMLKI
UniProt Q8WZA0: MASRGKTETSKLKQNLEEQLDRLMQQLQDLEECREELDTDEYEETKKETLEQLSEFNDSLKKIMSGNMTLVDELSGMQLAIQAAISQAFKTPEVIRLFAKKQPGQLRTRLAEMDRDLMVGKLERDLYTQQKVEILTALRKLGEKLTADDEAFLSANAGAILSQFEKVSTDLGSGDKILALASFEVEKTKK
UniProt Q92871: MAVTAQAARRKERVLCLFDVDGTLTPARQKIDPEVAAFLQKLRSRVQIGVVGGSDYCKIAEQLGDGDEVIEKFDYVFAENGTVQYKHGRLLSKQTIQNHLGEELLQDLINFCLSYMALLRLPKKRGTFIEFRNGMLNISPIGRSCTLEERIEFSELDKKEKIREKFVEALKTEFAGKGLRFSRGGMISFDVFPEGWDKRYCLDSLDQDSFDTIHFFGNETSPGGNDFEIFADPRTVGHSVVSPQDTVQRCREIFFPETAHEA
UniProt Q8NEJ9: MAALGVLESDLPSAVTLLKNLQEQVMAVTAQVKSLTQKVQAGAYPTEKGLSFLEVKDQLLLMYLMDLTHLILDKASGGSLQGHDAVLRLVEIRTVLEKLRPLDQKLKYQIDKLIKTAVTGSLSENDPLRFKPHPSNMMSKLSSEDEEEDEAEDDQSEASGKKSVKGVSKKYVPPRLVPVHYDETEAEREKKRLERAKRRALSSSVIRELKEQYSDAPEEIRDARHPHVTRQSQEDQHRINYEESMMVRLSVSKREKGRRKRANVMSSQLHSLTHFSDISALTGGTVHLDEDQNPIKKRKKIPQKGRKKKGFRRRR
UniProt Q8WVJ2: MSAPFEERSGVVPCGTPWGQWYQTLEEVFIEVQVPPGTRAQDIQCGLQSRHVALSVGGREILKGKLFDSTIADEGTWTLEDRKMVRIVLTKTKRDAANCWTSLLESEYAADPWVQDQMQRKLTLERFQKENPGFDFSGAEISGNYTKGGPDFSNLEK
UniProt Q8NDX6: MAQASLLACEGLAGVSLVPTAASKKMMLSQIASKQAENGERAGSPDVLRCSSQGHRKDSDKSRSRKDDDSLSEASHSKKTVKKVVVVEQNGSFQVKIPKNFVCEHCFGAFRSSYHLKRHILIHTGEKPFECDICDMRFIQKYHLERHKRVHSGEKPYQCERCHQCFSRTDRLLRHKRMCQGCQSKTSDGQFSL
UniProt Q8TBB5: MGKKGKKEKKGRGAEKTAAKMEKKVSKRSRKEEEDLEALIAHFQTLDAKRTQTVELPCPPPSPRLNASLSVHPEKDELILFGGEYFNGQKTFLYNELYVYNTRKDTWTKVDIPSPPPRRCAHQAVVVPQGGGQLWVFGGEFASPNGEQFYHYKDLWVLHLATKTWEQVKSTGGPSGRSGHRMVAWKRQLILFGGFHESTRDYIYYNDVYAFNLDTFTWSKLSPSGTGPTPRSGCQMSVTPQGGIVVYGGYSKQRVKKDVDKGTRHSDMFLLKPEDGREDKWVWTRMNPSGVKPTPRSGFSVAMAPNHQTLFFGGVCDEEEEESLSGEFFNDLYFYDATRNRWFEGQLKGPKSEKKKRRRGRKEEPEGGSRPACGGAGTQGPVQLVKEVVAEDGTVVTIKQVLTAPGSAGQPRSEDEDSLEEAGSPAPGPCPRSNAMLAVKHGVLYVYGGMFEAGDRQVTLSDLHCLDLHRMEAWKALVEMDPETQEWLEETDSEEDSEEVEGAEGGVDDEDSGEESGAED
UniProt Q92522: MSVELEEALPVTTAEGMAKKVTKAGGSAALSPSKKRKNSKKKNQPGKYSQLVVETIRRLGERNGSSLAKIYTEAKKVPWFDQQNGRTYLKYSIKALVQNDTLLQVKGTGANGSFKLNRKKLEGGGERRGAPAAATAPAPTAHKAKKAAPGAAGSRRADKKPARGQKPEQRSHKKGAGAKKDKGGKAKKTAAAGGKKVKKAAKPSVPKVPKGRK
UniProt Q8TDN6: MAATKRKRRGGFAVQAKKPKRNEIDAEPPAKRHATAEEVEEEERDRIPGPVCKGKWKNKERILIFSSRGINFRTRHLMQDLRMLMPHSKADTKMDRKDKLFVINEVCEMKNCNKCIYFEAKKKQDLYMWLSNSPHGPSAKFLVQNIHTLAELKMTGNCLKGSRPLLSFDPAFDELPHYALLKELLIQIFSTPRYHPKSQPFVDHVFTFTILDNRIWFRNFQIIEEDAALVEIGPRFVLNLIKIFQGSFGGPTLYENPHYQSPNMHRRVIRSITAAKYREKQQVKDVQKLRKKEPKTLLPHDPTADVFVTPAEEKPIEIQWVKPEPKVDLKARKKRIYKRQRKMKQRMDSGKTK
UniProt Q8WXG6, whole entry, looked up: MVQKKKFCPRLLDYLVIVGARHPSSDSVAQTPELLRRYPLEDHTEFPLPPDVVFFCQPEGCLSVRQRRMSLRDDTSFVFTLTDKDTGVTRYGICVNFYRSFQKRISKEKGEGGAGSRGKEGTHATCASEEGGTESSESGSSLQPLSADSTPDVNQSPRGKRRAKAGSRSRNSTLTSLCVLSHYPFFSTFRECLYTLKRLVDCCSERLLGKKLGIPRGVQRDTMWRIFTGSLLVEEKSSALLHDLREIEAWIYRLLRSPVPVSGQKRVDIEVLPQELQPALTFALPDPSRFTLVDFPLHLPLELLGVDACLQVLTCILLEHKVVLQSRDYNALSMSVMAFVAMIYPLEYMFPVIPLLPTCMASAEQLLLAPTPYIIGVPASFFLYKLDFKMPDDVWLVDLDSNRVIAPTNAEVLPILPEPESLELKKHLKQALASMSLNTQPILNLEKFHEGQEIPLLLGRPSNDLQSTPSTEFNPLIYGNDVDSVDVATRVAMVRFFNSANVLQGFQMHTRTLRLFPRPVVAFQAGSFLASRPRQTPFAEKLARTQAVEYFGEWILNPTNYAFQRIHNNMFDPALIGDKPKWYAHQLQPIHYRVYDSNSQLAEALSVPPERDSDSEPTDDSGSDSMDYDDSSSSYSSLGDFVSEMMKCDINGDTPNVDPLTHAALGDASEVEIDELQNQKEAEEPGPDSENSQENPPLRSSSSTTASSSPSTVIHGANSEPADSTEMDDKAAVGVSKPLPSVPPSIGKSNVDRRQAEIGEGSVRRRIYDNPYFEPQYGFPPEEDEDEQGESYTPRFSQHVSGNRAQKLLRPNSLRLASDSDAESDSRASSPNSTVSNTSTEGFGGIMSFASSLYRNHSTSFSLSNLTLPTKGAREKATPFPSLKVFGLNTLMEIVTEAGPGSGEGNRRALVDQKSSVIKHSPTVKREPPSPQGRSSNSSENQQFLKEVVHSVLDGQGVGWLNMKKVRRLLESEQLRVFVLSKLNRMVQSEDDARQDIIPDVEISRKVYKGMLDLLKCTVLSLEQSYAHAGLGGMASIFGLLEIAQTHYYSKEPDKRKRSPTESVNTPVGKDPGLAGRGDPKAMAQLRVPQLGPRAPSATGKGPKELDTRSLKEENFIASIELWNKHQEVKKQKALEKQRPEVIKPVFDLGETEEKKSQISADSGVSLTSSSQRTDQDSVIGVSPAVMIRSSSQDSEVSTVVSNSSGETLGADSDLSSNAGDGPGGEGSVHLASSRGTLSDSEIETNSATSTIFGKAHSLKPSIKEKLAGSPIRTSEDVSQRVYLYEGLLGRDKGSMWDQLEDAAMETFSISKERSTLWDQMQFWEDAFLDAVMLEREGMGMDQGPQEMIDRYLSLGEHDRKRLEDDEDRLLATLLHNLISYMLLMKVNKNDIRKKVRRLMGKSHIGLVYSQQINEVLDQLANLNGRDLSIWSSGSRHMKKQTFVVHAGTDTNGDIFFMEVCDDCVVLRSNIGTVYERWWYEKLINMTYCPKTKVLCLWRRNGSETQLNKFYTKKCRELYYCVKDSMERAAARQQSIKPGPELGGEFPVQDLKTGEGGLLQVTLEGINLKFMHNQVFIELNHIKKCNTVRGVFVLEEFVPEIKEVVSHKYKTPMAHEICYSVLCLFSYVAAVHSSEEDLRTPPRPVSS
UniProt Q8WXE1: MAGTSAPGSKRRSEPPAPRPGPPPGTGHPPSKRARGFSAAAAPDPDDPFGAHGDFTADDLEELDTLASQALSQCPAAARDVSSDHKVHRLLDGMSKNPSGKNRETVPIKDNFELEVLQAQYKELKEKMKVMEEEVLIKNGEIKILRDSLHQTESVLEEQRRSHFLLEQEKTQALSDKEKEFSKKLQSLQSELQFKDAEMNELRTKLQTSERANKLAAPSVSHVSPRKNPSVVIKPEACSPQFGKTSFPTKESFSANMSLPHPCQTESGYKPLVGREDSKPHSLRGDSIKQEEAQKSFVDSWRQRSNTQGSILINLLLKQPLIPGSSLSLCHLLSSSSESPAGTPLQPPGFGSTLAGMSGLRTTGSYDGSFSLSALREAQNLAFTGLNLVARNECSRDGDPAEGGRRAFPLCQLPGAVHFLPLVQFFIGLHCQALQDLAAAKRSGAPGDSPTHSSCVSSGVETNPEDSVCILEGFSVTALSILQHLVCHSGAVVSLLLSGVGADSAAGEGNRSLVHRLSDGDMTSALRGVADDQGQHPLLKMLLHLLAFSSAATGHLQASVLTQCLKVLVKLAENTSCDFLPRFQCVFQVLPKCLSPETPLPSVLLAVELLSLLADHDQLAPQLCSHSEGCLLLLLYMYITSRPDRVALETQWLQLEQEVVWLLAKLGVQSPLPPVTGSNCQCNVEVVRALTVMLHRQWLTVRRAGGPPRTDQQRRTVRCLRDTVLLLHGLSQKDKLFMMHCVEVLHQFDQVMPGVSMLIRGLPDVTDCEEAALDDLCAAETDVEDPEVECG
UniProt Q8WZ82: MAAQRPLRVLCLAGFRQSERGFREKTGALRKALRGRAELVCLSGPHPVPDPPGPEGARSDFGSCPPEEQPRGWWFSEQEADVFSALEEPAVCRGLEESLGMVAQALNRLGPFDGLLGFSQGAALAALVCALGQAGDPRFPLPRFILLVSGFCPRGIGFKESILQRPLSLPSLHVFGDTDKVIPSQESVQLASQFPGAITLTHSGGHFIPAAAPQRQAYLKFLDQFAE
UniProt Q92610: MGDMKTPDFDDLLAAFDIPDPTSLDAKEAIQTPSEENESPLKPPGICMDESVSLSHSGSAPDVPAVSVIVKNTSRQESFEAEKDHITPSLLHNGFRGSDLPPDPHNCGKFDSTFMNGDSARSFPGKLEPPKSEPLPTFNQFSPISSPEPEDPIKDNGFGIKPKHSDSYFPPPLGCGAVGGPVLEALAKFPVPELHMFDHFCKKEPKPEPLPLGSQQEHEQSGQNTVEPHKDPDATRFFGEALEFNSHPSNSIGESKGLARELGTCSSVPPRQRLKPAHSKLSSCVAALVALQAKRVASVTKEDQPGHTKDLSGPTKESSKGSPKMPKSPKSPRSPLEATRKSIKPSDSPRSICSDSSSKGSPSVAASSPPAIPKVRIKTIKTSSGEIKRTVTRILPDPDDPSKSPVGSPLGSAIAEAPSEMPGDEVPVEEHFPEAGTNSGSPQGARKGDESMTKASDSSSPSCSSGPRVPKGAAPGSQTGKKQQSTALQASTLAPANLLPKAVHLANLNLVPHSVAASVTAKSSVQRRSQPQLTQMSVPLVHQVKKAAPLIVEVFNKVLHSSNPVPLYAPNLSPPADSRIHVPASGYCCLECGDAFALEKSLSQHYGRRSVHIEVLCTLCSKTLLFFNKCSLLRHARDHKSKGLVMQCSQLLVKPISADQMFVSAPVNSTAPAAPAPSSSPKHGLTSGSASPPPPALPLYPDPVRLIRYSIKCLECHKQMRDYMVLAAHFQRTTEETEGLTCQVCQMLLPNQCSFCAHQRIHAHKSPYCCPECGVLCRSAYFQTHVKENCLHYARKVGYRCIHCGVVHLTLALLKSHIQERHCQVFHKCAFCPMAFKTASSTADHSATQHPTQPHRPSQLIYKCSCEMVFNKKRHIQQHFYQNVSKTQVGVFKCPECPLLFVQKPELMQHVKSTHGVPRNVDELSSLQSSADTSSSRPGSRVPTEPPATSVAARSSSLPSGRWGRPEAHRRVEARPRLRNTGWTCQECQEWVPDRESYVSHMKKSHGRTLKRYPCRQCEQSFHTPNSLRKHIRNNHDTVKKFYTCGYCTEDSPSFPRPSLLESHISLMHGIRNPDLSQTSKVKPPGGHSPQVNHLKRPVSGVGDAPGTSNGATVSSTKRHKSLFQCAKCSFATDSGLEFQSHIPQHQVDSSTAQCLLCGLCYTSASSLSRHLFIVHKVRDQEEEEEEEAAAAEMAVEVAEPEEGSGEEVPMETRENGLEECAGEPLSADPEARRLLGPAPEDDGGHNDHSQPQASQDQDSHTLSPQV

Compound: Nc1ncnc2c1ncn2[C@@H]1O[C@H](COP(=O)(O)OP(=O)(O)NP(=O)(O)O)[C@@H](O)[C@H]1O [adenylyl imidodiphosphate]
Experiment: NP40-soluble protein abundance relative to vehicle (solubility fold change) (ratio); higher = more soluble protein in presence of AMP-PNP
Summary of the method: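 Each value is a fold change relative to the detergent-processed vehicle, calculated per replicate from vsn-normalised intensities. Jurkat crude lysate received eight concentrations (0.1 to 10 mM) for 10 min at room temperature and 3 min at 37 °C, then was solubilised in 0.8% NP40 with benzonase (60 min, 4 °C). The ultracentrifuged supernatant was TMT-labelled and run by LC-MS/MS in three independent experiments.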

Target	NP40-soluble protein abundance (concentration: 0.1mM)	NP40-soluble protein abundance (concentration: 0.5mM)
UniProt Q8TCE6 and related entries	0.997 ± 0.028	0.989 ± 0.04
UniProt Q8WU79 and related entries	0.974 ± 0.013	1.03 ± 0.046
UniProt Q8TEV9 and related entries	0.97 ± 0.052	0.97 ± 0.03
UniProt Q8TF46 and related entries	1 ± 0.03	1.02 ± 0.03
UniProt Q8WVQ1 and related entries	0.961 ± 0.034	0.981 ± 0.012
NOC3L (UniProt Q8WTT2)	1.031 ± 0.0068	1.07 ± 0.03
UniProt Q8WZA9	0.985 ± 0.014	1 ± 0.058
UniProt Q8NHM5 and related entries	0.979 ± 0.01	0.969 ± 0.032
KIF18A (UniProt Q8NI77)	1.02 ± 0.038	1.03 ± 0.077
UniProt Q8WVT3	1.01 ± 0.026	0.9815 ± 0.0066
THAP4 (UniProt Q8WY91)	0.9862 ± 0.0022	0.9732 ± 0.0027
UniProt Q8WYQ5 and related entries	1.05 ± 0.059	0.974 ± 0.019
UniProt Q92859 and related entries	1 ± 0.026	0.967 ± 0.03
UniProt Q8WZA0 and related entries	0.957 ± 0.081	1.04 ± 0.054
PMM1 (UniProt Q92871)	1.01 ± 0.014	1.03 ± 0.033
UniProt Q8TDZ2 and related entries	0.979 ± 0.025	0.988 ± 0.038
LRRC8C (UniProt Q8TDW0)	1.009 ± 0.0037	0.9738 ± 0.0028
WASF1 (UniProt Q92558)	0.985 ± 0.019	1.01 ± 0.055
UniProt Q8WVM7 and related entries	1.01 ± 0.049	0.966 ± 0.041
UniProt Q8NEJ9 and related entries	0.985 ± 0.058	0.9915 ± 0.0094

Full records from above:
KIF18A (UniProt Q8NI77) as listed: NP40-soluble protein abundance (concentration: 0.1mM): 1.02 ± 0.038; NP40-soluble protein abundance (concentration: 0.5mM): 1.03 ± 0.077
UniProt Q8NEJ9 and related entries as listed: NP40-soluble protein abundance (concentration: 0.1mM): 0.985 ± 0.058; NP40-soluble protein abundance (concentration: 0.5mM): 0.9915 ± 0.0094

The results go on.

Target	NP40-soluble protein abundance (concentration: 0.1mM)	NP40-soluble protein abundance (concentration: 0.5mM)
UniProt Q8WYP5 and related entries	0.985 ± 0.043	0.9964 ± 0.005
UniProt Q92581-2|Q92581-3|Q92581	0.9917 ± 0.0092	0.995 ± 0.017
NUDCD2 (UniProt Q8WVJ2)	0.965 ± 0.028	0.98 ± 0.029
ELMO1 (UniProt Q92556)	0.991 ± 0.028	0.992 ± 0.035
ZNF740 (UniProt Q8NDX6)	0.978 ± 0.032	0.991 ± 0.036
TOR1AIP2 (UniProt Q8NFQ8)	0.965 ± 0.021	0.996 ± 0.021
UniProt Q8NG31 and related entries	1.02 ± 0.028	0.998 ± 0.045
UniProt Q8TBB5 and related entries	0.955 ± 0.016	1.01 ± 0.064
CADM4 (UniProt Q8NFZ8)	1 ± 0.026	1.02 ± 0.034
UniProt Q8NEZ4 and related entries	0.966 ± 0.05	0.938 ± 0.077
H1FX (UniProt Q92522)	0.992 ± 0.016	1.03 ± 0.086
RAB8B (UniProt Q92930)	0.983 ± 0.035	0.981 ± 0.036
UniProt Q8TBZ6	1.02 ± 0.011	0.994 ± 0.017
UniProt Q8TBX8	0.9964 ± 0.005	0.985 ± 0.014
FAR1 (UniProt Q8WVX9)	1.02 ± 0.06	1 ± 0.053
UniProt Q8TCZ2 and related entries	0.954 ± 0.033	0.975 ± 0.046
GPKOW (UniProt Q92917)	0.995 ± 0.025	1.03 ± 0.058
UniProt Q92845 and related entries	1.002 ± 0.0039	0.997 ± 0.033
UniProt Q8TEH3 and related entries	1.03 ± 0.014	1.02 ± 0.013
UniProt Q8TDN6	1.066 ± 0.0014	1.05 ± 0.011

Target	NP40-soluble protein abundance (concentration: 0.1mM)	NP40-soluble protein abundance (concentration: 0.5mM)
UniProt Q8TAA9 and related entries	0.983 ± 0.041	1.01 ± 0.019
GATAD2B (UniProt Q8WXI9)	0.999 ± 0.015	1.01 ± 0.038
UniProt Q8WXH0 and related entries	1.01 ± 0.0077	1.012 ± 0.009
UniProt Q8NFG4 and related entries	1.018 ± 0.01	1.01 ± 0.012
MRPS31 (UniProt Q92665)	1.05 ± 0.051	1.02 ± 0.043
UniProt Q8WXG6-4|Q8WXG6-5|Q8WXG6-6|Q8WXG6-7|Q8WXG6-8|Q8WXG6	1.01 ± 0.028	1.02 ± 0.026
ABHD11 (UniProt Q8NFV4)	1.01 ± 0.053	1.04 ± 0.041
UBASH3B (UniProt Q8TF42)	1.01 ± 0.041	0.98 ± 0.048
GALNT6 (UniProt Q8NCL4)	1.01 ± 0.041	1.03 ± 0.02
UniProt Q92567 and related entries	1.011 ± 0.0027	1 ± 0.019
PSPC1 (UniProt Q8WXF1)	0.996 ± 0.014	1.013 ± 0.0066
UniProt Q8WXE1 and related entries	0.975 ± 0.035	0.99 ± 0.047
IP6K1 (UniProt Q92551)	0.982 ± 0.013	0.978 ± 0.03
OVCA2 (UniProt Q8WZ82)	0.9978 ± 0.0078	1.009 ± 0.0035
UniProt Q8WXE0 and related entries	0.988 ± 0.049	0.973 ± 0.023
ZNF592 (UniProt Q92610)	1 ± 0.056	0.991 ± 0.047
MZB1 (UniProt Q8WU39)	1.02 ± 0.015	1.04 ± 0.046
UniProt Q8NCW5	0.984 ± 0.037	0.999 ± 0.071
NUP43 (UniProt Q8NFH3)	1.03 ± 0.024	1.012 ± 0.004
PPIL4 (UniProt Q8WUA2)	0.984 ± 0.029	1 ± 0.024
